In paper PMC12780113 one finds binding data, which are given here for one substance.

These are yes or no findings as the source states them, for the method shown. In cells and extracts the contact can be indirect. Binding calls can cover weak binding; strength is not graded here. Tags and fused reporters may be left off the sequences shown.

This test concerns the target T1, HNF4A (partner of the HDAC3 truncations in the GST pull-down) (UniProt P41235).
T1 sequence: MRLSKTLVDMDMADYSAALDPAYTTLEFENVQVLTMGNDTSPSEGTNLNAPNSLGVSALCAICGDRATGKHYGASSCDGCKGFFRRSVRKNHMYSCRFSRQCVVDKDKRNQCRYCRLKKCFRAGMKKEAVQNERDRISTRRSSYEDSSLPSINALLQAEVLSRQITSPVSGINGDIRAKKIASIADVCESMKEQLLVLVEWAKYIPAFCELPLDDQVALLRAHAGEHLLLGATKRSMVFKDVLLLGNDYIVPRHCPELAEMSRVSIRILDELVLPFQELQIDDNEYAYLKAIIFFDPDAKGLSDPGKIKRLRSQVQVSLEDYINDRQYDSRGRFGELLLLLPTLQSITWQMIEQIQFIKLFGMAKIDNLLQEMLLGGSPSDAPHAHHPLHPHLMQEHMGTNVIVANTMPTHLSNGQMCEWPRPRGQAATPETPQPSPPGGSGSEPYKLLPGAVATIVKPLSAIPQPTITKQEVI
Put plainly: pull-down; 5 µg GST-tagged protein with 85 µL 293T whole-cell lysate in 600 µL TAP buffer (50 mM Tris-HCl pH 7.5, 200 mM NaCl, 0.1% Triton X-100, 10% glycerol), 4 °C 2–3 h, glutathione-sepharose beads, immunoblot; which partner carried GST is told only for GST-HDAC3-DAD; only the target purified. On the technique in general: In western blotting, separated proteins are transferred to a membrane and probed.

For the substance “HDAC3 N-terminus containing the deacetylase-activating domain (DAD) (domain or fragment)”, the binding result is listed as “binds”.
